For two substances, binding results are on record in article PMC11082164.

Chains of the proteins cited; added tags and fusions are not shown.
UniProt P15311: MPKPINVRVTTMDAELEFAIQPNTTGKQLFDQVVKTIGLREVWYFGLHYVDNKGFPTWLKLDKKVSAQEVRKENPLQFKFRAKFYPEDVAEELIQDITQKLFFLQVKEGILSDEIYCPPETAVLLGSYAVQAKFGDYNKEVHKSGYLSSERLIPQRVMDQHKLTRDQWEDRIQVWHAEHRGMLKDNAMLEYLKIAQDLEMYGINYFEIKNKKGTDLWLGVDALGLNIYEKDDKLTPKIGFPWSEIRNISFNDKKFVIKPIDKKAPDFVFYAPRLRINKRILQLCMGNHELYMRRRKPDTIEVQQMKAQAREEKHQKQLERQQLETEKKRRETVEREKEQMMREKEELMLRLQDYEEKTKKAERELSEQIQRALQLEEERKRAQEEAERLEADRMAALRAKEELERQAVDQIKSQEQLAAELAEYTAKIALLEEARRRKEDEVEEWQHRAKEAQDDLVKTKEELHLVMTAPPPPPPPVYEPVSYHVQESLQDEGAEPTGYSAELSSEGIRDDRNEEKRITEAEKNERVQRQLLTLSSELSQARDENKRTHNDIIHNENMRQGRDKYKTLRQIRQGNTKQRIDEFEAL
UniProt P26038: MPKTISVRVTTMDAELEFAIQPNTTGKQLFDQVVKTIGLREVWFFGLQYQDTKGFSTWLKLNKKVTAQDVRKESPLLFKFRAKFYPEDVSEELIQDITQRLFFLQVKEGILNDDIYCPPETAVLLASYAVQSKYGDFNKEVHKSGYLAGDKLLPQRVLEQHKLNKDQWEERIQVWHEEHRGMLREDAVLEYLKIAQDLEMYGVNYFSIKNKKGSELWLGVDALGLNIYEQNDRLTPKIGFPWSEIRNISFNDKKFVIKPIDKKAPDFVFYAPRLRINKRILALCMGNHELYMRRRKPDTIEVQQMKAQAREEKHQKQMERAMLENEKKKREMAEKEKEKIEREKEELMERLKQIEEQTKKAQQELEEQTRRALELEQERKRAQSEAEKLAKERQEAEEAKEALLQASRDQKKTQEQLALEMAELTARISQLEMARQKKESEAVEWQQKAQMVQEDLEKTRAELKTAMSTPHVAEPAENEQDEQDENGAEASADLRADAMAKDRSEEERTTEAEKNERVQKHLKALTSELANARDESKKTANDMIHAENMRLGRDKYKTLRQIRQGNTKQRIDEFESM

These are yes or no findings as the source states them, for the method shown. In cells and extracts the contact can be indirect. Some results given as binding are weak or reduced against the parent protein; the word gives no strength. Sequences can lack the tags named with a protein.

In test [1] the target is T1, GFP-BIN1 isoform 1 (human) (UniProt O00499).
T1 sequence: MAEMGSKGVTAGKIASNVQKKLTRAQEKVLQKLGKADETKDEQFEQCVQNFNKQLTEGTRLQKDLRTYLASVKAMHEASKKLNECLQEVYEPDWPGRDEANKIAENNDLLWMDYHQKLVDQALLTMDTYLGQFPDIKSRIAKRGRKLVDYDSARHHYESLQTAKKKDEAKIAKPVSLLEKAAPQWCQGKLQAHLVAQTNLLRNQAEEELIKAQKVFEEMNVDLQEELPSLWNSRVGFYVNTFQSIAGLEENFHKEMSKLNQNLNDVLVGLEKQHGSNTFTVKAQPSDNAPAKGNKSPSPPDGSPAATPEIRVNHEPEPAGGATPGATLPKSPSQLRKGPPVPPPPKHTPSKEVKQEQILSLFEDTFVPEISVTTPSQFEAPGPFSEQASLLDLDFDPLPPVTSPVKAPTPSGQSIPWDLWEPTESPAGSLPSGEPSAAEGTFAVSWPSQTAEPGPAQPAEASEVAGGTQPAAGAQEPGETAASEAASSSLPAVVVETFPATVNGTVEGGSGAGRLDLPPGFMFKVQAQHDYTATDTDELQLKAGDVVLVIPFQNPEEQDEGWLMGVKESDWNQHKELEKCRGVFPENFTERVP
Kind of test: co-IP; GFP-Trap beads on extracts of transfected HeLa cells, 3 h at 4 °C in lysis buffer (25 mM Tris pH 7.5, 50-100 or 200 mM NaCl, 0.1% NP40), four washes; endogenous partner detected by western blot.

Another test addresses T2, GFP-Amphiphysin1 (human) (UniProt P49418).
T2 sequence: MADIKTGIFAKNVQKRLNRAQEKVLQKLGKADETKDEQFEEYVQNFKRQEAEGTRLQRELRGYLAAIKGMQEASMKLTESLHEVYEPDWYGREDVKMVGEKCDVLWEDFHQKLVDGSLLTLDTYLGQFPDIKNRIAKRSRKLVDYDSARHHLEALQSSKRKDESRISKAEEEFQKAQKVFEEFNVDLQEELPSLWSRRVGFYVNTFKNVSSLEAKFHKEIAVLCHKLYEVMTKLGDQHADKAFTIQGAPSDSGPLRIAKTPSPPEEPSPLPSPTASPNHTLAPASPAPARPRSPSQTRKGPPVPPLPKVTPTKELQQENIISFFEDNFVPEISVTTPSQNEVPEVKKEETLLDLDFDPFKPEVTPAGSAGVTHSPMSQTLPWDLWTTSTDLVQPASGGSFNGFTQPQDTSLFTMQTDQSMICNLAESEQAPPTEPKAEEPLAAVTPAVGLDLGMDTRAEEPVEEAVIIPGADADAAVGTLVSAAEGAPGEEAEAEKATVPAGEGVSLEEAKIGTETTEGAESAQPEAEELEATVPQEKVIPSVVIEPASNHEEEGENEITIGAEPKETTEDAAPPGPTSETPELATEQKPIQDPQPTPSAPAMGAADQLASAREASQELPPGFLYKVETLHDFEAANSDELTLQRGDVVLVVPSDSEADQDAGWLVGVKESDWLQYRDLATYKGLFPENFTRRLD
The test is described as above.

As for “ezrin (endogenous, HeLa) (from UniProt P15311 1-586)”, the binding result (in test [1]; with GFP-Amphiphysin1 (human)) was “no binding” in each case.
As to “moesin (endogenous, HeLa) (from UniProt P26038 1-577)”, the binding result in test [1] is “binds”.
